Test results as given in patent US7671181B2, “Polynucleotides encoding coccidian parasite casein kinase I, a chemotherapeutic target for antiprotozoal agents” (Merck Sharp & Dohme Corp., priority 2004, dated 2010).
For some of these results: Part of at least one peptide drawing is inferred or uncertain, most often the ends. For some of these results: At least one structure is not confirmed: it was looked up by name or label, or the drawing left a doubt. Non-standard residues stand in square brackets, D forms with d. Residues, ends and D or L forms follow the SMILES beside them. pS = N[C@@H](COP(=O)(O)O)C(=O)O

Amino acid sequences for entries named in this document (tags omitted). A change or cut given only in a name is not applied to a line headed by its entry.
UniProt Q6QNL9: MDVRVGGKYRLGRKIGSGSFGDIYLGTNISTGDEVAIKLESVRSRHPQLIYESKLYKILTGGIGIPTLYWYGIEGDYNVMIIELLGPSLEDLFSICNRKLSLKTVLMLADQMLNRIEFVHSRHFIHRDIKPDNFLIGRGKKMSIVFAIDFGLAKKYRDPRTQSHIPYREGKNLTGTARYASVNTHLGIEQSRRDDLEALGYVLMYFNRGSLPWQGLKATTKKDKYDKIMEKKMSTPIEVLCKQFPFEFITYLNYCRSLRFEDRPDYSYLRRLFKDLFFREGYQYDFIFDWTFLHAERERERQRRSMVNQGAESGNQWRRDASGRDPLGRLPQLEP
UniProt Q9BJF5, entry or part of it: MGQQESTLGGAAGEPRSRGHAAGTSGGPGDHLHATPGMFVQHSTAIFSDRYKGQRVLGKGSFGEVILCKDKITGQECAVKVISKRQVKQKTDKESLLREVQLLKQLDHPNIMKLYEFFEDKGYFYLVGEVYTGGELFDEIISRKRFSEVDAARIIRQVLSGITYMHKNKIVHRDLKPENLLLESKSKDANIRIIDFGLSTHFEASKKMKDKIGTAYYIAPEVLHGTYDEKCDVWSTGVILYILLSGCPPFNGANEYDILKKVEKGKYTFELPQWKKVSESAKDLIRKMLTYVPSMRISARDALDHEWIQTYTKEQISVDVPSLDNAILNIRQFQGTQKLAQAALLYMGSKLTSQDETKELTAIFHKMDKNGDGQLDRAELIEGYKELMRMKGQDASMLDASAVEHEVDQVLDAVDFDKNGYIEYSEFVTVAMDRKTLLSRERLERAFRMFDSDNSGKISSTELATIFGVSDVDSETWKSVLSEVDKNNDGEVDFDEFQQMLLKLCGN
UniProt Q6QNM1: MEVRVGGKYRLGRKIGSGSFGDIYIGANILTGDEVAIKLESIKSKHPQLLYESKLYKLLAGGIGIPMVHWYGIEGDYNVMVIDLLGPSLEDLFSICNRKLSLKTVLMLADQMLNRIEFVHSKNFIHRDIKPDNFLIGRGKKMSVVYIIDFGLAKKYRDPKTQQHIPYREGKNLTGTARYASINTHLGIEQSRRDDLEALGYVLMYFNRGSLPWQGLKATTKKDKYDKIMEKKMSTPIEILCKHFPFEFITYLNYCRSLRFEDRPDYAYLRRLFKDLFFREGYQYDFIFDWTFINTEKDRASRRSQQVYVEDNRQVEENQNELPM

Legend:
EtCKIα = EtCKIα (Eimeria tenella, UniProt Q6QNL9); assay: Casein kinase assay, partially purified native EtCKIα; format: biochemical; settings: greater activity than α-casein
Protocol: (§1) Protein kinase assays—Casein kinase activity was assayed essentially as described (Donald, R. G. K. et al., 2002, supra) using 96-well phosphocellulose plates (MAPH-NOB, Millipore; Billerica, Mass.) to capture ^33P-phosphorylated peptide or casein substrates. Kinase reactions were carried out in 40 μl volumes containing 25 mM Hepes, pH 7.4, 10 mM MgCl2, 20 mM β-glycerophosphate, 1 mM DTT, 250 μM substrate, 1 mg/mL BSA, 2 μM ATP, and 0.01 μM [γ-^33P]ATP (Perkin-Elmer, 3000 Ci/mmol). The reactions were initiated by the addition of enzyme and incubated at room temperature for 60 min. Casein (5% solution), partially dephosphorylated α-casein and β-casein were obtained from Sigma.
A variety of commercially available peptide substrates were evaluated. From Calbiochem (San Diego, Calif.): CKI substrate (RRKDLHDDEEDEAMSITA; SEQ ID NO:13); CKII substrate (RRADDSDDDDD; SEQ ID NO:14); Syntide-2 substrate (PLARTLSVAGLPGKK; SEQ ID NO:15); CaM kinase II substrate (281-291) (MHKNETVECLK; SEQ ID NO:16). From Promega: CKI substrate (DDDEESITRR; SEQ ID NO:17) and kemptide (LRRASLG; SEQ ID NO:18). From New England Biolabs (Beverly, Mass.): CKI phosphopeptide substrate (KRRRALS(p)VASLPGL; SEQ ID NO:19), and CKII substrate (RRREEETEEE; SEQ ID NO:20). PKG assays were performed with kemptide as substrate and 10 μM cGMP. CDPK was assayed with Syntide-2 substrate and in the presence of 100 μM CaCl2. […]

T. gondii tachyzoites = assay: [3H]-uracil uptake assay of parasite growth inhibition in infected HFF cell monolayers; format: cell-based, Toxoplasma gondii; settings: uracil uptake / whole cell assay
Description: Host cells and parasite cultures—RH strain or RH ΔHXGPRT strain tachyzoites of T. gondii were maintained by serial passage in confluent monolayers of human foreskin fibroblasts (“HFF”) as described (Roos, D. S. et al., 1994, Methods Cell Biol. 45:27-63). A modified [^3H]-uracil uptake assay (Pfefferkorn, E. R. and Pfefferkorn, L. C., 1977, J. Protozool. 24:449-453) adapted for use in 96-well scintillation plates (Cytostar-T, Amersham; Piscataway, N.J.) was used to measure parasite growth inhibition. Each well, previously seeded with HFF cells, was inoculated with T. gondii tachyzoites (2×10^4) in 200 μl of growth media containing 2 μCi [5,6]-^3H-uracil (Perkin-Elmer NEN; Boston, Mass.) and serially diluted compound. Following incubation at 37° C. for 36-48 hours, tritium-incorporation into host cell monolayers was directly counted in a microplate scintillation counter (MicroBeta, PerkinElmer-Wallac).

TgCDPK1 = target: T1, TgCDPK1 (Toxoplasma gondii, UniProt Q9BJF5); assay: CDPK assay with Syntide-2, T. gondii CDPK1; format: biochemical; settings: 0.2 μM hymenialdisine or 1 μM purvalanol B; CKI phosphopeptide substrate
T1 construct: The TgCDPK1 open reading frame was amplified by PCR from a Toxoplasma cDNA library; made in house
Protocol: as §1
A variety of commercially available peptide substrates were evaluated. […]
Purification of recombinant TgCDPK1 and TgPKG—The TgCDPK1 open reading frame was amplified by PCR from a Toxoplasma cDNA library, using primers based on the published sequence (Kieschnick et al., 2001, supra): sense primer, […] […] A C-terminal FLAG epitope tag was appended to the TgCDPK1 open reading frame by an additional round of PCR amplification (KOD polymerase) and the resulting DNA fragment was sub-cloned into a tubulin promoter expression vector (Donald and Liberator, 2002, supra). […]

TgCKIα = TgCKIα (Toxoplasma gondii, UniProt Q6QNM1); assay: Casein kinase assay, TgCKIα (recombinant FLAGTgCKIα or partially purified native); format: biochemical; parameters: Km(app), native TgCKIα; other: substrate titration, 2 μM ATP; IC50, nativeTgCKIα; other: partially purified native enzyme from Toxoplasma tachyzoites; sensitivity of native TgCKIα phosphopeptide kinase activity (HiTrapQ fractions 5-9); other: 0.2 μM hymenialdisine or 1; settings: 0.2 μM hymenialdisine or 1 μM purvalanol B
Protocol: as §1, with “The reactions were initiated by the addition of enzyme and incubated at room temperature for 60 min.” left out
A variety of commercially available peptide substrates were evaluated. From Calbiochem (San Diego, Calif.): CKI substrate (RRKDLHDDEEDEAMSITA; SEQ ID NO:13); CKII substrate (RRADDSDDDDD; SEQ ID NO:14); Syntide-2 substrate (PLARTLSVAGLPGKK; SEQ ID NO:15); CaM kinase II substrate (281-291) (MHKNETVECLK; SEQ ID NO:16). From Promega: CKI substrate (DDDEESITRR; SEQ ID NO:17) and kemptide (LRRASLG; SEQ ID NO:18). […]
Purification of recombinant CKI enzymes—E. coli strain BL21 Origami™ (Novagen) was transformed with FLAGTgCKIα and FLAGTgCKIβ expression vectors, and colonies were expanded into 250 mL LB cultures grown at 37° C. […] Protein was measured with a micro-BCA reagent (Pierce) following a TCA-sodium deoxycholate step to remove residual FLAG peptide (Brown et al., 1989, Anal. Biochem. 180:136-139). […]

Structure (SMILES)	Vmax relative to the α-casein substrate, native EtCKIα (EtCKIα) [×]	activity against cultured T. gondii parasites (T. gondii tachyzoites)	sensitivity of phosphopeptide kinase activity of fractions 14 and 15 (TgCDPK1) (TgCDPK1)	sensitivity of native TgCKIα phosphopeptide kinase activity (HiTrapQ fractions 5-9) (TgCKIα)
CC(C)C[C@H](NC(=O)CNC(=O)[C@@H]1CCCN1C(=O)[C@H](CC(C)C)NC(=O)[C@H](CO)NC(=O)[C@H](C)NC(=O)[C@@H](NC(=O)[C@H](COP(=O)(O)O)NC(=O)[C@H](CC(C)C)NC(=O)[C@H](C)NC(=O)[C@H](CCCNC(=N)N)NC(=O)[C@H](CCCNC(=N)N)NC(=O)[C@H](CCCNC(=N)N)NC(=O)[C@@H](N)CCCCN)C(C)C)C(=O)O [CKI phosphopeptide, KRRRALS(p)VASLPGL] (H-KRRRAL[pS]VASLPGL-OH)	2.5	–	–	–
NC1=NC(=O)/C(=C2\CCNC(=O)c3[nH]c(Br)cc32)N1 [Hymenialdisine]	–	no antiparasitic activity	partial sensitivity	sensitive
